Data from PubChem BioAssay AID2685 (National Center for Advancing Translational Sciences (NCATS), 2010).
The other results are listed elsewhere or left out. Shown are side measurements of this screen, not its main read-out; they come without a call. Most of these compounds were active or inconclusive in the main read-out, so they are no random draw. Words in brackets tell the shape of the fitted curve; partial curves, single points and poor fits give uncertain potencies.

Assay: qHTS Assay for Lipid Storage Modulators in Drosophila S3 Cells;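 on cell number change: cells counted by Cell Tracker Red CMTPX staining in the red channel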
Details: BODIPY lipid droplet fluorescence, 18-24 h; for cell number change: measured here: cell count max response, cells fed with added oleic acid
Outline: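 Drosophila S3 cells got compounds at several concentrations plus oleic acid (400 uM solution). Laser-scanning cytometry with 488 nm excitation read lipid droplets at 500-530 nm and cells at 575-640 nm. Percent activity was relative to 20 uM Triacsin C.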

[1] = measured here: lipid fluorescence (Fed channel) AC50, cells fed with added oleic acid
[2] = measured here: cell number channel AC50, cells fed with added oleic acid

Compound	cell number change [%]	AC50 [1]	AC50 [2]
O=C(Nc1ncc2c(n1)-c1ccccc1OC2)c1ccc(Cl)cc1	-7.47	0.0651 µM [falling, full curve, poor fit]	–
COC(=O)CN1C(=O)C2(OCCCO2)c2ccccc21	30.6	–	0.116 µM [rising, full curve]
O=c1[nH]ncc(N2CCCC2)c1Cl	-29.4	29.1 µM [falling, single point]	–
CC1CCCN(C2=C(Cl)C(=O)N(c3cccc(Cl)c3)C2=O)C1 (configuration not stated)	-2.98	6.51 µM [rising, single point]	–
Cc1ccc(N=Cc2cc(Br)cc(Cl)c2O)cc1	5.46	–	0.651 µM [falling, single point]
O=C(CSc1ccccc1)NNC(=O)c1ccncc1	-7.5	–	–
Cc1ccc(OCC(=O)N[C@@H](C)c2nnc3ccccn23)cc1C	16	0.13 µM [rising, full curve, poor fit]	–
CCOc1ccc(/C=C/C(=O)NCCc2ccc(OC)c(OC)c2)cc1	-43.8	–	16.4 µM [falling, single point]
Cc1nc2scc(C)n2c(=O)c1S(=O)(=O)Nc1ccc(N2CCN(C(=O)C(C)C)CC2)cc1	5.2	2.06 µM [rising, partial curve]	–
Cc1ccc(CS(=O)Cc2ccc(C(=O)NC3CCCC(C)C3C)o2)cc1 (configuration not stated)	-16.1	6.51 µM [rising, partial curve]	–
CN(Cc1ccc(C(C)(C)C)cc1)C(=O)c1ccc2c(=O)n3c(nc2c1)CCC3	55.4	–	13 µM [rising, partial curve]
Cc1ccc(NC(=O)C2=CC(c3cccs3)=NS(=O)(=O)N2C)cc1	26.5	29.1 µM [falling, single point]	–
CCN(C(=O)COC(=O)c1cc(C)oc1C)c1c(N)n(Cc2ccccc2)c(=O)[nH]c1=O	11.6	–	2.59 µM [falling, single point]
S=c1[nH]nc(-c2ccco2)n1/N=C/c1ccc(Cl)c(Cl)c1	-51.5	–	9.2 µM [falling, partial curve]
Cc1ccc(Nc2nc(-c3ccc(S(=O)(=O)N4CCOCC4)cc3)cs2)cc1Cl	9.75	16.4 µM [falling, partial curve, poor fit]	–
CCOC(=O)Cn1c(=O)oc2cc(S(=O)(=O)N3CCN(c4ccccn4)CC3)ccc21	-15	2.59 µM [rising, full curve]	–
COc1ccc(OCCC(=O)OCC(=O)NC(=O)NC2CCCCC2)cc1	2.94	3.66 µM [rising, partial curve, poor fit]	–
Nc1cccc(Oc2c(F)c(F)c(Oc3cccc(N)c3)c(F)c2F)c1	-25	29.1 µM [falling, single point]	–
O=C1CN(C(=O)COC(=O)c2ccccc2O)c2ccccc2N1	17.3	0.82 µM [falling, full curve, poor fit]	–
CSc1ccccc1C(=O)Nc1cccc(N(C)S(C)(=O)=O)c1	11.5	16.4 µM [rising, partial curve, poor fit]	–
COC(=O)c1sc(S(=O)(=O)NCC(=O)O)c(C(=O)OC)c1C	-8.65	–	0.103 µM [falling, full curve, poor fit]

Molecules above that contain a halogen, in the order listed:
Compound	cell number change [%]	AC50 [1]	AC50 [2]
O=C(Nc1ncc2c(n1)-c1ccccc1OC2)c1ccc(Cl)cc1	-7.47	0.0651 µM [falling, full curve, poor fit]	–
O=c1[nH]ncc(N2CCCC2)c1Cl	-29.4	29.1 µM [falling, single point]	–
CC1CCCN(C2=C(Cl)C(=O)N(c3cccc(Cl)c3)C2=O)C1 (configuration not stated)	-2.98	6.51 µM [rising, single point]	–
Cc1ccc(N=Cc2cc(Br)cc(Cl)c2O)cc1	5.46	–	0.651 µM [falling, single point]
S=c1[nH]nc(-c2ccco2)n1/N=C/c1ccc(Cl)c(Cl)c1	-51.5	–	9.2 µM [falling, partial curve]
Cc1ccc(Nc2nc(-c3ccc(S(=O)(=O)N4CCOCC4)cc3)cs2)cc1Cl	9.75	16.4 µM [falling, partial curve, poor fit]	–
Nc1cccc(Oc2c(F)c(F)c(Oc3cccc(N)c3)c(F)c2F)c1	-25	29.1 µM [falling, single point]	–

More structures

Compound	cell number change [%]	AC50 [1]	AC50 [2]
CC(NC(=O)COC(=O)CCNC(=O)c1ccco1)C12CC3CC(CC(C3)C1)C2 (configuration not stated)	-10.4	–	–
CC(C)Cc1ccc(/C=C/C(=O)NC2CC2)cc1	–	6.51 µM [rising, single point]	–
O=C(Nc1nc(-c2ccc([N+](=O)[O-])cc2)cs1)c1c(F)cccc1F	-14.2	0.461 µM [rising, partial curve]	–
CCc1[nH]c(=O)c(C#N)c2c1CCCC2	-3.38	6.51 µM [falling, single point]	–
CCNC(=O)c1cccc(NC(=O)c2cc(C3CC3)nc3c2cnn3C(C)C)c1	24.9	–	–
CC(=O)c1cc(C#N)c(SCc2ccc(F)cc2)nc1C	32.9	29.1 µM [rising, single point]	6.51 µM [falling, single point]
O=S(=O)(NC1CCCCC1)c1ccc(-c2csnn2)s1	57.9	0.731 µM [rising, full curve, poor fit]	3.66 µM [rising, full curve]
Nc1cccc(CCc2ccncc2)c1	-16.3	29.1 µM [falling, single point]	–
CN(C(=O)CSc1nnc(C2CC2)n1-c1ccccc1)C1CCS(=O)(=O)C1 (configuration not stated)	11.4	18.4 µM [rising, partial curve]	–
COCCn1c(=S)[nH]c2cc(C(=O)N3CC(C)CC(C)C3)ccc2c1=O (configuration not stated)	-1.53	9.2 µM [falling, partial curve, poor fit]	–
COc1cccc(OC)c1OCCCOc1cccc2cccnc12	7.01	23.1 µM [falling, single point]	–
COc1ccc(OC)c(CN2CCN(C(=O)c3cccs3)CC2)c1	34.2	–	6.51 µM [rising, single point]
C[C@H]1CN=C(N(C)C)N1CC1CCCCC1	-12	0.00461 µM [rising, full curve, poor fit]	–
CC(C)Cn1c(N)c(C(=O)COC(=O)c2cccc(F)c2)c(=O)n(C)c1=O	32.6	–	29.1 µM [rising, single point]
CCOc1ccc(NC(=O)[C@@H](NC(=O)c2ccccc2)[C@@H](C)CC)cc1	-5.65	–	6.51 µM [rising, single point]
Fc1ccc(/C=N/Nc2nnnn2-c2ccccc2)cc1	–	5.17 µM [falling, partial curve, poor fit]	–
CCc1ccc(CNC(=O)C2CCN(S(=O)(=O)N3CCC(C)CC3)CC2)cc1	17.6	29.1 µM [falling, partial curve, poor fit]	–
CCCCN(C)C(=O)C1CCN(c2ccc(S(=O)(=O)N3CCOCC3)cc2[N+](=O)[O-])CC1	-16.2	5.17 µM [falling, partial curve, poor fit]	–
Clc1ccccc1-c1nc(-c2ccncc2)no1	-36.9	1.84 µM [falling, partial curve]	–
O=C(CCS(=O)(=O)c1ccc(F)cc1)Nc1nnc(-c2ccc(F)cc2)o1	20	–	–
COc1ccc2oc(C(=O)OCC(=O)N(C)c3c(N)n(Cc4ccccc4)c(=O)[nH]c3=O)c(C)c2c1	-62.8	0.461 µM [falling, single point]	29.1 µM [falling, single point]

Taken from above.
AC50 [1], `CC(C)Cc1ccc(/C=C/C(=O)NC2CC2)cc1` is entered as 6.51 µM [rising, single point]
cell number change [%], `O=C(Nc1nc(-c2ccc([N+](=O)[O-])cc2)cs1)c1c(F)cccc1F` is entered as -14.2

The results go on.

Compound	cell number change [%]	AC50 [1]	AC50 [2]
C/C(=C\C(=O)OCC(=O)NCc1ccccc1)C(=O)OCC(=O)NCc1ccccc1	-9.78	0.0092 µM [falling, full curve, poor fit]	–
Cc1ccnc(NC(=O)CCC(=O)N(CC(=O)NC2CCCCC2)Cc2ccc3c(c2)OCO3)c1	-15.7	0.58 µM [rising, partial curve]	–
Cc1noc(C)c1COC(=O)Cn1c(C)nc2ccccc21	-29.7	–	–
COc1ccc(/C=C2\C(=O)ON=C2c2ccccc2)cc1OC	24	–	–
Cc1ccc(N2CS(=O)(=O)/C(=C/N(C)C)C2=O)cc1	–	20.6 µM [falling, single point]	–
N#Cc1ccc(C(=O)OCC(=O)N2CCCCCC2)cc1	4.39	11.6 µM [falling, partial curve, poor fit]	–
CCOc1ccc(N2CC(C(=O)OC)CC2=O)cc1 (configuration not stated)	-25.8	0.651 µM [falling, full curve]	0.651 µM [falling, full curve, poor fit]
CC(=C1C(=O)c2ccccc2C1=O)N1CCN(c2ccc(F)cc2)CC1	–	6.51 µM [falling, partial curve]	0.58 µM [falling, full curve]
CC1CC1C(=O)OCC(=O)NCc1ccccc1Cl (configuration not stated)	–	3.66 µM [falling, full curve]	–
CC1C(c2ccccc2)C(C#N)(C#N)C2(C#N)C(=O)NC1(N)C2C (configuration not stated)	15.2	0.146 µM [falling, full curve, poor fit]	–
NC(=O)C1CCN(C(=O)C2c3ccccc3C(=O)N3CCc4ccccc4C23)CC1 (configuration not stated)	10.5	16.4 µM [rising, single point]	–
O=C(CCN1C(=O)C2C3C=CC(C3)C2C1=O)N1CCN(c2ccccc2F)CC1 (configuration not stated)	19.5	5.8 µM [rising, full curve]	–
NC(=O)CCNC(=O)c1ccc(Cl)cc1	11.4	29.1 µM [falling, partial curve]	–
Cc1ccc(S(=O)(=O)NC(=O)Nc2ccc(N(C)C)cc2)cc1	-54.3	29.1 µM [falling, single point]	29.1 µM [falling, single point]
Cc1ccc(S(=O)(=O)N(C)C)cc1NC(=O)c1cc(-c2ccco2)nc2ccccc12	28.1	29.1 µM [rising, single point]	–
CCCCOC(=O)Nc1ccccc1C(=O)OC	-7.43	–	–
O=c1c2ccccc2nc(/C=C/c2ccc([N+](=O)[O-])o2)n1CCCO	-24	2.06 µM [falling, full curve]	–
COc1ccccc1NC(=O)CSc1nc2ccccc2c(=O)n1CC1CCCO1 (configuration not stated)	-19.7	3.55 µM [falling, single point]	–
COC(=O)Cc1c(C)c2ccc(OC(=O)c3ccccc3)cc2oc1=O	0.295	5.8 µM [falling, full curve]	0.0058 µM [falling, full curve, poor fit]
